Record: PubChem BioAssay AID1259308 (NCATS, 2017)

- Purpose: 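Genes whose loss raises luciferase production in HEK293 cells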 (primary screen)
- Cells: human HEK293 embryonic kidney cells stably expressing firefly luciferase (HEK-CMV-Luc2-Hygro)
- Reagents: single siRNA against human genes, 0.8 pmol siRNA per well
- Time to read-out: 72 h
- Read-out: 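Luciferase light (ONE-Glo) measured on one replicate plate set and viability (CellTiter-Glo) on the other, scaled to a negative control siRNA, with robust z-scores and luciferase per cell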
- Reading the numbers: total luciferase, z-score and total luciferase, % of control: higher = more reporter protein produced; luciferase per cell, z-score: higher = more reporter output per viable cell; viable cells, % of control: higher = more viable cells
- Rule for the call: 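An siRNA counts as active if its total luciferase robust z-score exceeds 3; genes with two or more such siRNAs out of three were retested with fresh siRNAs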
- Calls: active = raised luciferase; inactive = no rise
The whole screen tested about 59,000 reagents; below is a part drawn at random. Of all reagents, about 1,510 (2.6%) got an active call. 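Calls use total luciferase alone and ignore viability, so some active siRNAs may act by altering cell number.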 Reagents against one gene are numbered here. No sequences are given here.

gene symbol | reagent | total luciferase, z-score | total luciferase, % of control | luciferase per cell, z-score | viable cells, % of control | Outcome
RDH14 | 1 | 3.41 | 150 | 2.69 | 82.3 | active
RDH14 | 2 | -0.965 | 62.7 | -0.921 | 89.3 | inactive
RDH14 | 3 | -0.412 | 73.7 | -0.221 | 87.3 | inactive
IFNE | 1 | 0.771 | 97.2 | 1.84 | 66.9 | inactive
IFNE | 2 | -0.132 | 79.3 | -0.406 | 98.6 | inactive
IFNE | 3 | -1.16 | 58.9 | -0.988 | 85.4 | inactive
CYTH4 | 1 | 0.758 | 97 | -0.266 | 116 | inactive
CYTH4 | 2 | 1.42 | 110 | 0.802 | 99.6 | inactive
CYTH4 | 3 | 0.0348 | 82.6 | 0.191 | 87.7 | inactive
TASOR | 1 | 1.12 | 104 | 1.2 | 84.9 | inactive
TASOR | 2 | 0.691 | 95.6 | 0.365 | 97.1 | inactive
TASOR | 3 | 2.91 | 140 | 2.95 | 71.7 | inactive
MCM8 | 1 | -0.827 | 65.4 | -1.5 | 109 | inactive
MCM8 | 2 | 1.43 | 110 | 1.17 | 90.7 | inactive
MCM8 | 3 | 0.581 | 93.4 | 0.187 | 99.4 | inactive
IFIH1 | 1 | 1.25 | 107 | 0.757 | 97.7 | inactive
IFIH1 | 2 | -0.711 | 67.7 | -0.319 | 82.3 | inactive
IFIH1 | 3 | -0.393 | 74.1 | -0.477 | 93.8 | inactive
PTGDS | 1 | -1.17 | 58.7 | -1.14 | 88.5 | inactive
PTGDS | 2 | -1 | 61.9 | -1.3 | 97.5 | inactive
PTGDS | 3 | -0.298 | 76 | -0.41 | 94.5 | inactive
THAP3 | 1 | -1.38 | 54.4 | -1.81 | 97.8 | inactive
THAP3 | 2 | 0.624 | 94.3 | 0.84 | 84.5 | inactive
THAP3 | 3 | -0.95 | 63 | -1.41 | 102 | inactive
OR2AG2 | 1 | -1.73 | 47.4 | -1.91 | 87.6 | inactive
OR2AG2 | 2 | 0.768 | 97.2 | 0.438 | 96.8 | inactive
OR2AG2 | 3 | -0.386 | 74.2 | -0.688 | 99.4 | inactive
PTPRR | 1 | 0.584 | 93.5 | 0.38 | 94.5 | inactive
PTPRR | 2 | 0.33 | 88.4 | -0.543 | 114 | inactive
PTPRR | 3 | 1.21 | 106 | 0.739 | 97.5 | inactive
MUC5B | 1 | -1.14 | 59.2 | -1.24 | 91.7 | inactive
MUC5B | 2 | -0.0638 | 80.6 | -0.092 | 92.3 | inactive
MUC5B | 3 | 1.13 | 104 | 1.23 | 84.5 | inactive
TNNI3K | 1 | 0.762 | 97 | 1.11 | 81 | inactive
TNNI3K | 2 | 0.298 | 87.8 | -0.68 | 117 | inactive
TNNI3K | 3 | 0.336 | 88.6 | -0.317 | 108 | inactive
DENND10P1 | 1 | -0.779 | 66.4 | -0.252 | 79.3 | inactive
DENND10P1 | 2 | -0.0825 | 80.2 | -0.371 | 98.9 | inactive
DENND10P1 | 3 | 0.659 | 95 | 0.795 | 86.1 | inactive
OR8K1 | 1 | -0.204 | 77.8 | 0.393 | 78.4 | inactive
OR8K1 | 2 | -0.185 | 78.2 | -0.044 | 88.4 | inactive
OR8K1 | 3 | 0.953 | 101 | 0.0643 | 111 | inactive
OTUD4 | 1 | -1.45 | 53.1 | -1.18 | 81 | inactive
OTUD4 | 2 | -0.665 | 68.7 | -0.735 | 93.1 | inactive
OTUD4 | 3 | 0.143 | 84.7 | -0.852 | 118 | inactive
SF3B2 | 1 | -0.628 | 69.4 | 1.66 | 50 | inactive
SF3B2 | 2 | 3.05 | 143 | 5.23 | 40.2 | active
SF3B2 | 3 | 2.75 | 137 | 4.5 | 46.7 | inactive
CDRT15P13 | 1 | -0.171 | 78.5 | 0.0699 | 86.1 | inactive
CDRT15P13 | 2 | 3.58 | 153 | 2.82 | 81.4 | active
CDRT15P13 | 3 | -1.86 | 44.9 | -1.74 | 79.4 | inactive
ACMSD | 1 | -0.51 | 71.7 | -0.566 | 93 | inactive
ACMSD | 2 | 0.219 | 86.2 | 0.441 | 85.8 | inactive
ACMSD | 3 | -1.19 | 58.3 | -0.945 | 83.5 | inactive
C1orf74 | 1 | 0.182 | 85.5 | 0.846 | 76.5 | inactive
C1orf74 | 2 | 0.711 | 96 | 0.593 | 91.8 | inactive
C1orf74 | 3 | 0.723 | 96.3 | 0.271 | 100 | inactive
APCDD1L-DT | 1 | -0.396 | 74 | -0.708 | 99.6 | inactive
APCDD1L-DT | 2 | 2.64 | 134 | 3.2 | 64.6 | inactive
APCDD1L-DT | 3 | -0.85 | 65 | -0.988 | 94.2 | inactive
AARD | 1 | -0.815 | 65.7 | -0.697 | 88.2 | inactive
AARD | 2 | 0.205 | 86 | -0.52 | 110 | inactive
AARD | 3 | -2.04 | 41.4 | -1.93 | 76.8 | inactive
FBXO21 | 1 | 0.181 | 85.5 | 1.1 | 71.4 | inactive
FBXO21 | 2 | -0.343 | 75.1 | -0.4 | 93.2 | inactive
FBXO21 | 3 | -0.0979 | 79.9 | -0.102 | 91.8 | inactive
SLC22A14 | 1 | 0.605 | 93.9 | 1.81 | 65.2 | inactive
SLC22A14 | 2 | -0.31 | 75.7 | -0.467 | 95.7 | inactive
SLC22A14 | 3 | 0.542 | 92.7 | -0.0829 | 106 | inactive
IRGC | 1 | 1.74 | 117 | 1.27 | 93.2 | inactive
IRGC | 2 | -0.478 | 72.4 | -0.545 | 93.4 | inactive
IRGC | 3 | 0.861 | 99 | 0.781 | 90.1 | inactive
FMNL3 | 1 | -1.63 | 49.4 | -0.944 | 70.8 | inactive
FMNL3 | 2 | -0.157 | 78.8 | 0.0202 | 87.5 | inactive
FMNL3 | 3 | 0.0794 | 83.5 | 0.233 | 87.7 | inactive

Laid out differently: entries from further up
CDRT15P13 #2 | total luciferase, z-score: 3.58; total luciferase, % of control: 153; luciferase per cell, z-score: 2.82; viable cells, % of control: 81.4; Outcome: active
CDRT15P13 #3 | total luciferase, z-score: -1.86; total luciferase, % of control: 44.9; luciferase per cell, z-score: -1.74; viable cells, % of control: 79.4; Outcome: inactive
ACMSD #1 | total luciferase, z-score: -0.51; total luciferase, % of control: 71.7; luciferase per cell, z-score: -0.566; viable cells, % of control: 93; Outcome: inactive
ACMSD #2 | total luciferase, z-score: 0.219; total luciferase, % of control: 86.2; luciferase per cell, z-score: 0.441; viable cells, % of control: 85.8; Outcome: inactive
ACMSD #3 | total luciferase, z-score: -1.19; total luciferase, % of control: 58.3; luciferase per cell, z-score: -0.945; viable cells, % of control: 83.5; Outcome: inactive
C1orf74 #1 | total luciferase, z-score: 0.182; total luciferase, % of control: 85.5; luciferase per cell, z-score: 0.846; viable cells, % of control: 76.5; Outcome: inactive
C1orf74 #2 | total luciferase, z-score: 0.711; total luciferase, % of control: 96; luciferase per cell, z-score: 0.593; viable cells, % of control: 91.8; Outcome: inactive
C1orf74 #3 | total luciferase, z-score: 0.723; total luciferase, % of control: 96.3; luciferase per cell, z-score: 0.271; viable cells, % of control: 100; Outcome: inactive
